In paper PMC6406627 one finds binding data, which are given here for one substance.

The chains behind the UniProt entries cited, without tags or fusion partners. Where a name states a change or a piece, a line headed by the entry shows the natural chain unless it says otherwise.
UniProt Q12809: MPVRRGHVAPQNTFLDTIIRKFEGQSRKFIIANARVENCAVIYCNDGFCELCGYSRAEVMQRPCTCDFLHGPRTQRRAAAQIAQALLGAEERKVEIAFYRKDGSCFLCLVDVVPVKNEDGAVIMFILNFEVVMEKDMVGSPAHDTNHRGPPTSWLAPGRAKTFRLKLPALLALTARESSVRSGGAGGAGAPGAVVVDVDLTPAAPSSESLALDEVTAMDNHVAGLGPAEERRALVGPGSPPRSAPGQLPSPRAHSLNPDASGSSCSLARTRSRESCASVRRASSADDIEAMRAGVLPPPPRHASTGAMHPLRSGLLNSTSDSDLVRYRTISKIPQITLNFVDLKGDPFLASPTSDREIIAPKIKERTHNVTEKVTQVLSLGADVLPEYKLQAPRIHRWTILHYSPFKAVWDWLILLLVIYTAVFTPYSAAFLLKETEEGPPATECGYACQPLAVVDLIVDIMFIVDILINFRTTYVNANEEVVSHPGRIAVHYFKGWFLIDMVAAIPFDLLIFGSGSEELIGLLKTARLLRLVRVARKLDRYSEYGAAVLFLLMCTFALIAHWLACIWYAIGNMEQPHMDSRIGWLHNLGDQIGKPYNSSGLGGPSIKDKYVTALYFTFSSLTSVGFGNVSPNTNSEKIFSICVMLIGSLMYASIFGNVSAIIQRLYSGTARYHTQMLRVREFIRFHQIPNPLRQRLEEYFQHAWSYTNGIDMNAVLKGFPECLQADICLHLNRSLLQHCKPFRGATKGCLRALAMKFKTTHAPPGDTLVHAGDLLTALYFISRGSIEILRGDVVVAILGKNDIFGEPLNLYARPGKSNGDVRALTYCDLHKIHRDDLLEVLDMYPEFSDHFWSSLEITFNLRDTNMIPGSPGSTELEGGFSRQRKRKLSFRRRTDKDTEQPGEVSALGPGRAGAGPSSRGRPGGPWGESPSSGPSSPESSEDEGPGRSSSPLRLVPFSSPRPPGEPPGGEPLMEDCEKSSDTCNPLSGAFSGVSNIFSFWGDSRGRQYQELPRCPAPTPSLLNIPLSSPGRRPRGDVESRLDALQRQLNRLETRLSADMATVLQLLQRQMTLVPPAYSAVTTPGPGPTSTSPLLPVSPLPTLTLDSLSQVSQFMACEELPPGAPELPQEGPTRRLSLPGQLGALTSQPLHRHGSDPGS
UniProt P05556: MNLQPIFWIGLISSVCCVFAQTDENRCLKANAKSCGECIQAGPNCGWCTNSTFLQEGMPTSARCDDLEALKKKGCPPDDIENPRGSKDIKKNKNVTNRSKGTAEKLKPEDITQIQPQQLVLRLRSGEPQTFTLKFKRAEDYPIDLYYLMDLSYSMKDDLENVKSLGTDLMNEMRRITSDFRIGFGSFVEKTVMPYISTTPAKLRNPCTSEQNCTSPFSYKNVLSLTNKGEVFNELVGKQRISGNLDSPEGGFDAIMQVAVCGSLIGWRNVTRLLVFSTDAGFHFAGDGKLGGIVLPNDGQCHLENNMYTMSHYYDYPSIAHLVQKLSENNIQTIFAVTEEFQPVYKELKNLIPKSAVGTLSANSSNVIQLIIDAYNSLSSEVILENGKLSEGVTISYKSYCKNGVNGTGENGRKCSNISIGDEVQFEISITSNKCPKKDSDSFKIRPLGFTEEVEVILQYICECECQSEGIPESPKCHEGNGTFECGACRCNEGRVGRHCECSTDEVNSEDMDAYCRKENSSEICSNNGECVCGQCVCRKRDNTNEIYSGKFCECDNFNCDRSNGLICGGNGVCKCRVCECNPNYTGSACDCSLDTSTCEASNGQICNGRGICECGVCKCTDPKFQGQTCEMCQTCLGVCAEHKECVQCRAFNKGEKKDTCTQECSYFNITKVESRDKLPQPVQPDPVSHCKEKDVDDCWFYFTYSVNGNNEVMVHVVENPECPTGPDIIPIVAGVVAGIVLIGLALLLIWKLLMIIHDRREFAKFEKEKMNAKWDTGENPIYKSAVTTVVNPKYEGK

Results are given in words; binding and its absence hold for the method and conditions named. Binding seen in cells or lysates may run through a third protein. Some entries that bind do so weakly or less than the wild type.

This assay concerns the target voltage dependent potassium channel KV11.1 (human (endogenous in PANC-1)) (UniProt Q12809). As to the kind of experiment: co-IP; PANC-1 total lysate (1.5 mg), precleared with Protein A/G Plus-Agarose, 4 °C; cells seeded 90 min on polylysine, FN or DM plus Hypo-PSC-CM; legend: IP with anti-hERG1 mAb, blots with anti-KV11.1 or anti-β1 antibody (methods: IP with mAb-β1).

Take “β1 integrin (from UniProt P05556 21-798) (receptor)”: the binding result is recorded as “binds”.
